In paper PMC10927090, “Plasmodium falciparum contains functional SCF and CRL4 ubiquitin E3 ligases, and CRL4 is critical for cell division and membrane integrity” (PLOS Pathogens, 2024):
No constants are given. Whether binding was seen depends on the method and setting. Binding seen in cells or lysates may run through a third protein. A yes stands for co-enrichment or nearness to the bait. Other partners may have been found. For part of these data: A no says only that the protein was not detected with the bait. For part of these data: Sequences can lack the tags named with a protein.

Amino acid sequences for entries named in this document (tags omitted). A change or cut given only in a name is not applied to a line headed by its entry.
UniProt Q7KQK2: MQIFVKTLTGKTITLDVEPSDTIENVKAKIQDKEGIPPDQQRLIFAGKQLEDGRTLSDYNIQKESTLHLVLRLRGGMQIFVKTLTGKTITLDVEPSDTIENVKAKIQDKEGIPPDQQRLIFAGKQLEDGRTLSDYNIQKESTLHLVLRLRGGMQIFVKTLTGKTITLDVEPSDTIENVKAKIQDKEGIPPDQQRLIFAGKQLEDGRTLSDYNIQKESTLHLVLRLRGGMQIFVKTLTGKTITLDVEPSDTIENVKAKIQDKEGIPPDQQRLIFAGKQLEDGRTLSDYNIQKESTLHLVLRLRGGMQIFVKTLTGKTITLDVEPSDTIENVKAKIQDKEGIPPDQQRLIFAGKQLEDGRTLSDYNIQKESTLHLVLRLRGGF
UniProt Q8IHZ9: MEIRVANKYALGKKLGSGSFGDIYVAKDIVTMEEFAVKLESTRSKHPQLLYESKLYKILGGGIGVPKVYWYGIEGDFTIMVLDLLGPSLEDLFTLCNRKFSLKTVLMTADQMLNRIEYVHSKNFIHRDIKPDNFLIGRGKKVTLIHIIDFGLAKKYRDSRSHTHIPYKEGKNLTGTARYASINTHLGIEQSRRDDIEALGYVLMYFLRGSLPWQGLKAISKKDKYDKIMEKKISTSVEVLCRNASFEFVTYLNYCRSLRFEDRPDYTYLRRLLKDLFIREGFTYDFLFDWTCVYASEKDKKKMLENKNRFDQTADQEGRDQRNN

T1: PfSkp1 with C-terminal GFP-tag (P. falciparum), Q8ID38
T1 chain: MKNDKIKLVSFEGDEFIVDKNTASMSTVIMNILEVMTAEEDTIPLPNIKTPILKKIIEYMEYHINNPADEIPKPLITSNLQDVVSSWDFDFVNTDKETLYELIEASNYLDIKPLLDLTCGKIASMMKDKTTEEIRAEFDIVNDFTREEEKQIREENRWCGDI

T2: PfRbx1 with C-terminal Myc-tag (P. falciparum) (UniProt O77367)
T2 sequence: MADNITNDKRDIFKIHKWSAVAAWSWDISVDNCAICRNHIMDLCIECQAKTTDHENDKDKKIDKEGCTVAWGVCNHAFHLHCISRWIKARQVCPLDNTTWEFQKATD

T3: PfCullin-1/GFP (P. falciparum) (UniProt Q8IAU5)
T3 sequence: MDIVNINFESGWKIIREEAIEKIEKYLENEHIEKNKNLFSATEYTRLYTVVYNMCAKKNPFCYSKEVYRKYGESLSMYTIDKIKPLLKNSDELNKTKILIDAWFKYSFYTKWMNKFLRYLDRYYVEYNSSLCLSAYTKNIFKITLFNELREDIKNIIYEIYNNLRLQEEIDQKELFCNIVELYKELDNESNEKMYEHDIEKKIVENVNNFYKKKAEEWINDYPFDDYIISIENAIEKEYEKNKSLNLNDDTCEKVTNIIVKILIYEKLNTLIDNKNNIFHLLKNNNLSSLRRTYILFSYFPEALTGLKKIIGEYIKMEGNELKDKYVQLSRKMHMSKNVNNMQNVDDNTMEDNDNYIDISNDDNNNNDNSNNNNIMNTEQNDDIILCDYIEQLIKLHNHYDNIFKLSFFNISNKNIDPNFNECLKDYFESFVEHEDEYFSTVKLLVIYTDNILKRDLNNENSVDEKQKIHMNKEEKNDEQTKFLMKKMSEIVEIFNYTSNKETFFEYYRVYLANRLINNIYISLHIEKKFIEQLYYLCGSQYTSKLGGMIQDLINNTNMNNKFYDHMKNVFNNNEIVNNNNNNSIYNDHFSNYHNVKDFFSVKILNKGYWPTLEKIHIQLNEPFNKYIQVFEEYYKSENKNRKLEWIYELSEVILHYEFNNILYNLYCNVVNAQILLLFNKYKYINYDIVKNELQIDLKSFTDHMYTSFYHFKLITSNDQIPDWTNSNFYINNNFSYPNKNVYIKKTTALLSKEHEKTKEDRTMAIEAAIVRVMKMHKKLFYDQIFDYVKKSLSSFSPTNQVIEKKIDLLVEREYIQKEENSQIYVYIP

T4: PfSkp1 with C-terminal GFP-tag (P. falciparum) (UniProt Q8ID38)
T4 sequence: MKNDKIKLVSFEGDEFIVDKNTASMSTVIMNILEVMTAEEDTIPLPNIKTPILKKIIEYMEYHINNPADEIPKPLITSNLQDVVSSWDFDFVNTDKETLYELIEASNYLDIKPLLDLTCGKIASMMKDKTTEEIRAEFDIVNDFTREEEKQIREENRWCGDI

T5: PfCullin-2/cDDHA (P. falciparum) (UniProt C6KTD3)
T5 sequence: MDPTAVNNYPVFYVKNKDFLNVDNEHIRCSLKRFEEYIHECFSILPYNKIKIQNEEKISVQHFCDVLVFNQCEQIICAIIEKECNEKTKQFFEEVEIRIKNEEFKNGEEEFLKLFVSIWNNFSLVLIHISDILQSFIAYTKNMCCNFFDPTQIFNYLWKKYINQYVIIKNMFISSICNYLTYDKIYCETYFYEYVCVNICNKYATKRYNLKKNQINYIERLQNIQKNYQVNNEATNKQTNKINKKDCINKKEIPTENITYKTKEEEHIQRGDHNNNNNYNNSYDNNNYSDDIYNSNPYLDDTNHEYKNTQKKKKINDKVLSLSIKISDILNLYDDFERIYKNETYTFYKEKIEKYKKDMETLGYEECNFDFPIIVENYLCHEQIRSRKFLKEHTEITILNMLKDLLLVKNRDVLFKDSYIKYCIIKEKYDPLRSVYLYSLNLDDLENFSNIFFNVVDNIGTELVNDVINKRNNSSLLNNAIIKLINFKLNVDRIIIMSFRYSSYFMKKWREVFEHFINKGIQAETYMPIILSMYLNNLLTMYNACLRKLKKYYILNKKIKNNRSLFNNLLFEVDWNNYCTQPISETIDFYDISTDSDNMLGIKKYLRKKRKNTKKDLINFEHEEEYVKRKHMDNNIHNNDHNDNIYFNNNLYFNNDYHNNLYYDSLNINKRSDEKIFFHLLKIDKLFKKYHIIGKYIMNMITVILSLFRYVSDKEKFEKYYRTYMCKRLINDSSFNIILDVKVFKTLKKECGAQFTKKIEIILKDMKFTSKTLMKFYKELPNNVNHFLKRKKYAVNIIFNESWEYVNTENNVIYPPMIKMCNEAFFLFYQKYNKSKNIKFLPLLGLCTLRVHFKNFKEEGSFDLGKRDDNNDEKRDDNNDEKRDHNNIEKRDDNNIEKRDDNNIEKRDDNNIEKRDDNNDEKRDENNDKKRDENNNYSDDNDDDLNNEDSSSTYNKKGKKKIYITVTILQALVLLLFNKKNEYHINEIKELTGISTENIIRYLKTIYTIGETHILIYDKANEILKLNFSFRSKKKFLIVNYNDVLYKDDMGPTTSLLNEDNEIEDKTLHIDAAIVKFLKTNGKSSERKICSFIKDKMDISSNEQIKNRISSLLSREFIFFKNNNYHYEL

B1: PfRbx1, O77367 1-107 (protein)
chain: MADNITNDKRDIFKIHKWSAVAAWSWDISVDNCAICRNHIMDLCIECQAKTTDHENDKDKKIDKEGCTVAWGVCNHAFHLHCISRWIKARQVCPLDNTTWEFQKATD
B2: PfCullin-1 (protein, UniProt Q8IAU5 1-829)
chain: MDIVNINFESGWKIIREEAIEKIEKYLENEHIEKNKNLFSATEYTRLYTVVYNMCAKKNPFCYSKEVYRKYGESLSMYTIDKIKPLLKNSDELNKTKILIDAWFKYSFYTKWMNKFLRYLDRYYVEYNSSLCLSAYTKNIFKITLFNELREDIKNIIYEIYNNLRLQEEIDQKELFCNIVELYKELDNESNEKMYEHDIEKKIVENVNNFYKKKAEEWINDYPFDDYIISIENAIEKEYEKNKSLNLNDDTCEKVTNIIVKILIYEKLNTLIDNKNNIFHLLKNNNLSSLRRTYILFSYFPEALTGLKKIIGEYIKMEGNELKDKYVQLSRKMHMSKNVNNMQNVDDNTMEDNDNYIDISNDDNNNNDNSNNNNIMNTEQNDDIILCDYIEQLIKLHNHYDNIFKLSFFNISNKNIDPNFNECLKDYFESFVEHEDEYFSTVKLLVIYTDNILKRDLNNENSVDEKQKIHMNKEEKNDEQTKFLMKKMSEIVEIFNYTSNKETFFEYYRVYLANRLINNIYISLHIEKKFIEQLYYLCGSQYTSKLGGMIQDLINNTNMNNKFYDHMKNVFNNNEIVNNNNNNSIYNDHFSNYHNVKDFFSVKILNKGYWPTLEKIHIQLNEPFNKYIQVFEEYYKSENKNRKLEWIYELSEVILHYEFNNILYNLYCNVVNAQILLLFNKYKYINYDIVKNELQIDLKSFTDHMYTSFYHFKLITSNDQIPDWTNSNFYINNNFSYPNKNVYIKKTTALLSKEHEKTKEDRTMAIEAAIVRVMKMHKKLFYDQIFDYVKKSLSSFSPTNQVIEKKIDLLVEREYIQKEENSQIYVYIP
B3: PfRbx1 (protein, UniProt O77367 1-107)
chain: MADNITNDKRDIFKIHKWSAVAAWSWDISVDNCAICRNHIMDLCIECQAKTTDHENDKDKKIDKEGCTVAWGVCNHAFHLHCISRWIKARQVCPLDNTTWEFQKATD

Biological target: T1, PfSkp1 with C-terminal GFP-tag (P. …)
Assay: affinity purification with mass spectrometry; parasite lysates (10 mM Tris, 0.5 mM EDTA, 100 mM NaCl, 0.5% NP-40, pH 7.5) incubated with GFP-Trap (PfCullin-1/GFP, PfSkp1GFP) or Myc-Trap (PfRbx1myc) beads 2 h at 4°C; LC-MS/MS of eluates; hits exclusive against GFP control or wild type D10, in at least 2 of 3 repeats
Settings: remark: other sources report otherwise

**Q.** Which binding does the source give for B1 here?
**A.** Its binding is “no binding”.

Biological target: T2, PfRbx1 with C-terminal Myc-tag (P. falciparum)
Assay: as above
Settings: not given

**Q.** For B2, which binding is on record?
**A.** The binding was “binds”.

Biological target: T3, PfCullin-1/GFP (P. falciparum)
Assay: as above
Settings: not given

**Q.** How did the binding turn out when B3 was run?
**A.** Its binding is “binds”.

Biological target: T4, PfSkp1 with C-terminal GFP-tag (P. falciparum)
Assay: as above
Settings: not given

**Q.** With B2 as the molecule, how does the binding read?
**A.** Its binding is “binds”.

Biological target: T2, PfRbx1 with C-terminal Myc-tag (P. falciparum)
Assay: as above
Settings: not given
Remark: another data set of the same source

**Q.** With PfAtg18 as the molecule, how does the binding read?
**A.** Its binding is “binds”.

**Q.** With PfNEDD8 as the molecule, how does the binding read?
**A.** Its binding is “binds”.

**Q.** Tubulin gamma chain was tested. Which binding did it give?
**A.** The binding was “binds”.

**Q.** Which binding does the source give for actin related protein here?
**A.** Its binding is “binds”.

**Q.** With regulator of chromosome condensation as the molecule, how does the binding read?
**A.** The binding was “binds”.

Biological target: T3, PfCullin-1/GFP (P. falciparum)
Assay: as above
Settings: not given
Remark: another data set of the same source

**Q.** For DDI1, which binding is on record?
**A.** The binding was “binds”.

Biological target: T4, PfSkp1 with C-terminal GFP-tag (P. falciparum)
Assay: as above
Settings: not given
Remark: another data set of the same source

**Q.** For DDI1, which binding is on record?
**A.** The binding was “binds”.

**Q.** Polyubiquitin (from UniProt Q7KQK2) was tested. Which binding did it give?
**A.** The binding was “binds”.

**Q.** How did the binding turn out when anti-oxidant protein DJ1 was run?
**A.** The binding was “binds”.

**Q.** Which binding does the source give for calcyclin binding protein (PfCacyBP) here?
**A.** The binding was “binds”.

**Q.** For exported protein PHISTb, which binding is on record?
**A.** Its binding is “binds”.

**Q.** Which binding does the source give for putative FBXO1 protein (PfFBXO1) here?
**A.** Its binding is “binds”.

Biological target: T5, PfCullin-2/cDDHA (P. falciparum)
Assay: affinity purification with mass spectrometry; PfCul2KDD10 parasite lysate (10 mM Tris-Cl, 150 mM NaCl, 0.5 mM EDTA, 0.1% NP-40, 10% glycerol, pH 7.5) with rabbit anti-HA antibodies overnight, protein A/G magnetic beads; LC-MS/MS of eluates; hits exclusive against wild type D10, in at least 2 of 3 repeats
Settings: not given

**Q.** For KAHRP, which binding is on record?
**A.** The binding was “binds”.

**Q.** How did the binding turn out when “P. falciparum ubiquitin carboxy-terminal hydrolase 7 (PfUCH7) (enzyme)” was run?
**A.** The binding was “binds”.

**Q.** PHISTc was tested. Which binding did it give?
**A.** Its binding is “binds”.

**Q.** Which binding does the source give for PfNEDD8 here?
**A.** The binding was “binds”.

**Q.** For WD40 repeat protein PfWD40A, which binding is on record?
**A.** Its binding is “binds”.

**Q.** Which binding does the source give for WD40 repeat protein PfWD40B here?
**A.** Its binding is “binds”.

**Q.** Which binding does the source give for “casein kinase 1 (from UniProt Q8IHZ9 1-324) (enzyme)” here?
**A.** The binding was “binds”.

**Q.** Which binding does the source give for exportin-7 here?
**A.** Its binding is “binds”.

**Q.** Which binding does the source give for karyopherin alpha here?
**A.** Its binding is “binds”.

**Q.** How did the binding turn out when “parasite-infected erythrocyte surface protein 2” was run?
**A.** The binding was “binds”.

**Q.** For rhoptry neck protein 3, which binding is on record?
**A.** Its binding is “binds”.

**Q.** With rhoptry neck protein 5 as the molecule, how does the binding read?
**A.** The binding was “binds”.

**Q.** With translocon component PTEX88 as the molecule, how does the binding read?
**A.** The binding was “binds”.

**Q.** With B3 as the molecule, how does the binding read?
**A.** Its binding is “binds”.
